This data set deals with the molecule itself. The data set can be described thus: SEC; gel filtration of the purified reagents; elution volumes compared with expected sizes.

B1: affibody-dCK fusion protein (anti-Her2 affibody fused to engineered human deoxycytidine kinase) (designed binder)
chain: VDNKFNKEMRNAYWEIALLPNLNNQQKRAFIRSLYDDPSQSANLLAEAKKLNDAQAPKMATPPKRSCPSFSASSEGTRIKKISIEGNIAAGKSTFVNILKQLSEDWEVVPEPVARWCNVQSTQDEFEELTMEQKNGGNVLQMMYEKPERWSFTFQTYACLSMIRAQLASLNGKLKDAEKPVLFFERSVYSARYIFASNLYESESMNETEWTIYQDWHDWMNNQFGQSLELDGIIYLQATPETCLHRIYLRGRNEEQGIPLEYLEKLHYKHESWLLHRTLKTNFDYLQEVPILTLDVNEDFKDKYESLVEKVKEFLSTL
Consider B1, for which the “stoichiometry N” value turned out to be 2.

(Values after PMC4900609 (PLoS ONE, 2016).)
